Taken from: PubChem BioAssay AID504784 (Drosophila RNAi Screening Center, 2011)
Screen: 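Genome-wide knock-down for genes giving too much or too little stored lipid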 (primary screen). Cells: Drosophila Kc167 embryonic cells. Reagent: long dsRNA against Drosophila genes, about 250 ng dsRNA per well. Duration: 4 days. Treatment: cells fed 400 µM oleic acid bound to BSA. Measurement: 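Microscope images give a droplet-to-nucleus area ratio, taken as log and converted to a screen-wide B-score; higher values mean greater lipid storage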. Direction: droplet/nuclear area B-score: higher = more stored lipid (overstorage).
The screen tested about 17,000 reagents; shown is an unselected part of those that have a named target and a result. 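Each column is one replicate's B-score; the combined score over replicates was not deposited, so single values may mislead.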 Names joined by + are all predicted targets of the reagent.

no.	Target gene	amplicon	droplet/nuclear area B-score, replicate 1	droplet/nuclear area B-score, replicate 2	droplet/nuclear area B-score, replicate 3
1	CG8306 (GeneID 36857)	DRSC07141	2.26	1.17	
2	His-Psi:CR31616 + His-Psi:CR31615	DRSC03760	0.486	-0.173	
3	beta3GalTII (GeneID 35848)	DRSC07253	-2.77	-0.501	
4	crp (GeneID 34956)	DRSC03515	-1.21	-0.599	
5	und (GeneID 34294)	DRSC03629	1.35	-0.0652	
6	CG31862 (GeneID 318989)	DRSC01245	-0.941	0.718	
7	flip (GeneID 40539)	DRSC12326	-0.356	-0.663	
8	CG31008 (GeneID 318554)	DRSC14028	-0.783	0.281	
9	Paf-AHalpha (GeneID 32529)	DRSC20267	0.901	-0.0671	
10	CG11227 (GeneID 33071)	DRSC20476	0.406	0.428	
11	CG7794 (GeneID 42159)	DRSC16313	-0.457	-0.0221	
12	CG30065 (GeneID 246431)	DRSC05420	1.3	-0.913	
13	HP5 (GeneID 32090)	DRSC19773	-1.21	-0.533	0.499
14	Wnt10 (GeneID 34011)	DRSC02797	-0.00942	-1.52	
15	CG34057 (GeneID 3885645)	DRSC08375	0.704	0.00922	
16	CG7824 (GeneID 43530)	DRSC16321	0.303	-0.00373	
17	Csgalnact (GeneID 36079)	DRSC06228	0.816	0.651	
18	CG8630 (GeneID 41629)	DRSC16441	-0.034	-1.59	
19	CG32061 (GeneID 39196)	DRSC22605	-0.0474	0.00641	
20	PIG-C (GeneID 38410)	DRSC08241	0.131	-1.16	
21	cer (GeneID 37229)	DRSC05992	1.22	0.855	
22	Pdh (GeneID 39812)	DRSC11249	-0.197	-2.44	0.111
23	Tsp39D (GeneID 35405)	DRSC03099	-0.327	-0.562	
24	CG6927 (GeneID 31419)	DRSC18407	-0.185	-0.651	-1.1
25	Pur-alpha (GeneID 43797)	DRSC17166	0.959	-0.688	
26	CG9436 (GeneID 35586)	DRSC05005	-1.47	-2.44	
27	Vha36-2 (GeneID 36328)	DRSC06294		1.3	
28	CG4364 (GeneID 34287)	DRSC02742	0.881	1.47	
29	Cht8 (GeneID 37390)	DRSC04546	1.99	-0.882	
30	CG9672 (GeneID 32651)	DRSC20201	-1.31	-1.2	
31	MED8 (GeneID 37305)	DRSC06426	0.281	0.535	
32	Tango8 (GeneID 50210)	DRSC06474	-0.473	1.31	-1.3
33	CG9919 (GeneID 32598)	DRSC20219	2.87	-6.62	
34	Eglp4 (GeneID 37739)	DRSC04438	1.1	-0.514	
35	CR31541 (retired record) (GeneID 3772590)	DRSC21876	-0.148	-1.69	
36	raptor (GeneID 31543)	DRSC18359	0.0377	-0.00954	
37	miple1 (GeneID 38047)	DRSC08722	1.13	0.177	
38	Golgin104 (GeneID 39810)	DRSC10459	-2.9	-1.35	0.0215
39	CG14621 (GeneID 33128)	DRSC20635	-0.62	-1.13	
40	PXo (GeneID 38666)	DRSC09734	-1.67	0.292	
41	CG4968 (GeneID 34384)	DRSC02794	0.369	-0.884	-0.14
42	Sems (GeneID 40315)	DRSC11626	-0.601	-3.14	
43	Rac2 (GeneID 38831)	DRSC11262	0.967	-1.04	
44	DCTN2-p50 (GeneID 44086)	DRSC07132	-0.905	-0.236	
45	CG13097 (GeneID 34184)	DRSC02199	-0.918	-1.88	
46	Zir (GeneID 33165)	DRSC00307	-0.461	-0.229	
47	Ir94g (GeneID 42768)	DRSC15231	-0.536	-1.08	
48	CG31793 (GeneID 326161)	DRSC02605	-1.42	1.95	
49	CG10286 (GeneID 40786)	DRSC12520	-0.0181	-0.00772	
50	l(2)k01209 (GeneID 36953)	DRSC06889	0.292	0.335	

Copied from the list.
Entry of CG11227 (GeneID 33071) [DRSC20476] under “droplet/nuclear area B-score, replicate 2”: 0.428
flip (GeneID 40539) [DRSC12326], droplet/nuclear area B-score, replicate 2 = -0.663
CG7794 (GeneID 42159) [DRSC16313], droplet/nuclear area B-score, replicate 1 = -0.457
CG4968 (GeneID 34384) [DRSC02794], droplet/nuclear area B-score, replicate 2 = -0.884

Further entries follow.
no.	Target gene	amplicon	droplet/nuclear area B-score, replicate 1	droplet/nuclear area B-score, replicate 2	droplet/nuclear area B-score, replicate 3
51	Mdr50 (GeneID 36582)	DRSC07467	0.0171	-0.0892	
52	Hsc70-1 (GeneID 39542)	DRSC11185	5	6.92	
53	CG12811 (GeneID 41229)	DRSC14549	0.0502	0.0642	
54	Gga (GeneID 31902)	DRSC18260	0.33	-0.606	0.468
55	CG12325 (GeneID 36144)	DRSC06130	-1.07	-0.0696	
56	CG10761 (GeneID 31749)	DRSC17753	0.281	-0.473	
57	CG9471 (GeneID 41197)	DRSC16499	-0.659	-0.00508	
58	mAChR-C (GeneID 31626)	DRSC17890	0.00135	0.233	
59	CG31802 (GeneID 318949)	DRSC02459	0.107	0.402	
60	axed (GeneID 38741)	DRSC08833	-1.24	1.9	
61	axed (GeneID 38741)	DRSC10982	2.41	1.65	
62	unc (GeneID 33093)	DRSC20511	-0.897	-0.365	
63	CG4988 (GeneID 34586)	DRSC02800	-3.25	-0.304	
64	corto (GeneID 40616)	DRSC12375	0.0483	-1.08	
65	corto (GeneID 40616)	DRSC22279	0.85	0.691	
66	corto (GeneID 40616)	DRSC22988	-0.295	-0.574	
67	CG8152 (GeneID 36696)	DRSC07083	0.143	0.807	
68	CNPYb (GeneID 40084)	DRSC09845	-0.396	-0.156	-0.23
69	Cyp309a2 (GeneID 33439)	DRSC00526	1.18	0.166	
70	CG17625 (GeneID 42678)	DRSC15249	0.154	0.0414	
71	mnb (GeneID 32771)	DRSC20058	1.47	2.57	
72	mnb (GeneID 32771)	DRSC20353	-1.49	-0.605	
73	mnb (GeneID 32771)	DRSC23347	0.196	-0.846	
74	CG7791 (GeneID 35511)	DRSC04891	-0.169	-0.944	
75	TwdlZ (GeneID 318092)	DRSC19154	-0.561	-0.664	
76	CG16903 (GeneID 31178)	DRSC18561	-0.665	0.212	
77	Taldo (GeneID 37804)	DRSC04320	0.627	-0.301	
78	CG13319 (GeneID 36423)	DRSC06356	1.61	0.285	
79	CG6696 (GeneID 32856)	DRSC20004	1.24	0.621	
80	CG4891 (GeneID 34948)	DRSC01936	0.105	0.0061	
81	alc (GeneID 35931)	DRSC07062	0.0512	0.558	
82	alc (GeneID 35931)	DRSC21464	-0.00515	-0.554	
83	alc (GeneID 35931)	DRSC23316	-0.482	-2.11	
